This assay relates to Pseudomonas aeruginosa. Kind of assay: Tobramycin synergy checkerboard assay (MIC, FIC). To be noted: 20 h, 20 hours at 37° C., about 10^5 cells per mL, read-out: MIC Antimicrobial Alone. The assay is classed as cell-based. How it is done:
A checkerboard assay was used to screen 64 unique combinations of antimicrobial concentrations in triplicate. For each study, approximately 10^5 cells per mL were treated with chitosan-arginine (64-0.5 μg/mL) and/or tobramycin (4-0.031 μg/mL). Bacteria were incubated at 37° C. for 20 hours. The fluorescent pigment pyocyanin produced by Pseudomonas aeruginosa can be correlated with bacterial growth. The Minimum Inhibitory Concentration (MIC) values obtained with this protocol (fluorescence was measured 485 nm excitation, 535 nm emission) are the same as those obtained using optical density (Hoffman et. al., 2005).
Three independent checkerboard assays were completed in triplicate using different lots of chitosan-arginine and tobramycin with the MIC of each antimicrobial alone reported in Table 6 (column 1). The amounts of chitosan-arginine (μg/ml) co-administered are in bold. The tobramycin MIC reported in response to co-administered C/A is noted above the bolded values. It is clear that the addition of 0.5 μg/ml chitosan-arginine caused the MIC of tobramycin to be reduced 4 to 8-fold.
The FIC is an interaction coefficient indicating whether the combined inhibitory/bacteristatic effect of drugs is synergistic, additive or antagonistic (FIC=A+B) where: A=(MIC of X with Y)/(MIC of drug X alone) and, B=(MIC of Y with X)/(MIC of drug Y alone). […]

Molecules are shown by their SMILES.

As to `NC[C@H]1O[C@H](O[C@H]2[C@H](O)[C@@H](O[C@H]3O[C@H](CO)[C@@H](O)[C@H](N)[C@H]3O)[C@H](N)C[C@@H]2N)[C@H](N)C[C@@H]1O` [Tobramycin], the minimal inhibitory concentration (MIC) (commonly the lowest concentration that inhibits growth of the organism) is 0.5 µg/mL.

The values above are taken from patent publication US12465616B2, “Methods and compositions for disrupting biofilm utilizing chitosan-derivative compounds” (SYNEDGEN, INC., priority 2009, dated 2025).
